Counter-ions that a name gives are not always drawn. The list shows a part of the results. Hit calls seldom repeat between salt and free forms of one compound.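 Kinases, fused to nanoluciferase, were expressed in K562 cells; luminescence was measured every 4 h from 2 to 18 h as percent of control (DMSO = 100%, positive control = 0%). A time point is decreased if signal falls significantly (2 sigma). Hits were called by the authors by a rule that is not shown; the count of time points alone does not decide it.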
Tests used:
Assay in all cases: kinase-Nluc reporter destabilization hit call (1 = scored as downregulated) (binary); higher = compound decreases kinase abundance
Settings in all cases: K562; 2-18 h
ABL1 = ABL1 (UniProt P00519)
AKT1 = AKT1 (UniProt P31749)
ALK = ALK (UniProt Q9UM73)
ARAF = ARAF (UniProt P10398)
AURKA = AURKA (UniProt O14965)
AURKB = AURKB (UniProt Q96GD4)
AURKC = AURKC (UniProt Q9UQB9)
BLK = BLK (UniProt P51451)
BMX = BMX (UniProt P51813)
BRAF = BRAF (UniProt P15056)
BRAF_V600E = tested on: BRAF_V600E
BTK = BTK (UniProt Q06187)
CAMK2A = CAMK2A (UniProt Q9UQM7)
CAMK2G = CAMK2G (UniProt Q13555)
CDK10 = CDK10 (UniProt Q15131)
CDK2 = CDK2 (UniProt P24941)
CDK3 = CDK3 (UniProt Q00526)
CDK4 = CDK4 (UniProt P11802)
CDK5 = CDK5 (UniProt Q00535)
CDK6 = CDK6 (UniProt Q00534)

Sequences of proteins named here, by UniProt entry; tags and fusion partners are left off. A change or cut given only in a name is not applied to a line headed by its entry.
UniProt P00519, whole entry: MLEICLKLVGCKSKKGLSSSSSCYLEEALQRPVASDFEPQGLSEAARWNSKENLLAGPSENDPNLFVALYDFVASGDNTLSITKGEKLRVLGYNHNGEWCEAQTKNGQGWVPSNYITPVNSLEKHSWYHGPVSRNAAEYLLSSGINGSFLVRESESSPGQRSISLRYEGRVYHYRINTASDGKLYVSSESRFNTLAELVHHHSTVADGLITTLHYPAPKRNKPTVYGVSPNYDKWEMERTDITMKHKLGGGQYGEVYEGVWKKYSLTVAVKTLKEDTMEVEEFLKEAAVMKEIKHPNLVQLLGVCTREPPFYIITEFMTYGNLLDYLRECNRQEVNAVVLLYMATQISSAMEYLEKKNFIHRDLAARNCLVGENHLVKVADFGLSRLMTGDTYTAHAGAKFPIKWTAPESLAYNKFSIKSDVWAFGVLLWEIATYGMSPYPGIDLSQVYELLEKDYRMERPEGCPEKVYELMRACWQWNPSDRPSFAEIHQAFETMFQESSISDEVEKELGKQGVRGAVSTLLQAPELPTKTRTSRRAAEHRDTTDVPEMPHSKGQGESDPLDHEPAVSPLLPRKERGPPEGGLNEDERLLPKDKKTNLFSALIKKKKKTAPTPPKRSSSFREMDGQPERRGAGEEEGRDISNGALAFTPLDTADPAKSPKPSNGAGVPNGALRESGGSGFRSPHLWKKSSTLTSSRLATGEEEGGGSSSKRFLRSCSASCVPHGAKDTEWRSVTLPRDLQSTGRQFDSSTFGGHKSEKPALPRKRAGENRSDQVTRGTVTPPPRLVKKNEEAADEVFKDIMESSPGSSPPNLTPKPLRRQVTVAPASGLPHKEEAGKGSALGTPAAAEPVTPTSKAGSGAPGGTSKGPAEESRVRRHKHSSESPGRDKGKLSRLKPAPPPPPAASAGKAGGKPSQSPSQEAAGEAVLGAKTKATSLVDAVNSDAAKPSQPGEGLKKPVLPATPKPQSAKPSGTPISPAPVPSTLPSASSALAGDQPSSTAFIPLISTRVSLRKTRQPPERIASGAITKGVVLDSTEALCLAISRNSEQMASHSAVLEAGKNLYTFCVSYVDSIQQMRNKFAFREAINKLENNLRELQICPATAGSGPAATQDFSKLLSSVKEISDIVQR
UniProt P31749: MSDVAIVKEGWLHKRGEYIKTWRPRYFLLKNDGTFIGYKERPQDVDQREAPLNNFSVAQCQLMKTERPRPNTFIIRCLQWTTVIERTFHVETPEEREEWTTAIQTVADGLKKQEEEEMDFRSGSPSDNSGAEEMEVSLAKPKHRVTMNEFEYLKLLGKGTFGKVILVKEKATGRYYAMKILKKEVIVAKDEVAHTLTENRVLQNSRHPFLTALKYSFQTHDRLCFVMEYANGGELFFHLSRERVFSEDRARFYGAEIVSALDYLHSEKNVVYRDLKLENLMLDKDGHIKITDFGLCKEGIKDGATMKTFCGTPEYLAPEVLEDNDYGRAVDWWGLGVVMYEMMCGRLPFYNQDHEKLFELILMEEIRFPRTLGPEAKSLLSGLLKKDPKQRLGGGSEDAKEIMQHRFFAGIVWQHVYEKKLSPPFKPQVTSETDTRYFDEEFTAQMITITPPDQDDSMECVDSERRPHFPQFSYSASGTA
UniProt P10398: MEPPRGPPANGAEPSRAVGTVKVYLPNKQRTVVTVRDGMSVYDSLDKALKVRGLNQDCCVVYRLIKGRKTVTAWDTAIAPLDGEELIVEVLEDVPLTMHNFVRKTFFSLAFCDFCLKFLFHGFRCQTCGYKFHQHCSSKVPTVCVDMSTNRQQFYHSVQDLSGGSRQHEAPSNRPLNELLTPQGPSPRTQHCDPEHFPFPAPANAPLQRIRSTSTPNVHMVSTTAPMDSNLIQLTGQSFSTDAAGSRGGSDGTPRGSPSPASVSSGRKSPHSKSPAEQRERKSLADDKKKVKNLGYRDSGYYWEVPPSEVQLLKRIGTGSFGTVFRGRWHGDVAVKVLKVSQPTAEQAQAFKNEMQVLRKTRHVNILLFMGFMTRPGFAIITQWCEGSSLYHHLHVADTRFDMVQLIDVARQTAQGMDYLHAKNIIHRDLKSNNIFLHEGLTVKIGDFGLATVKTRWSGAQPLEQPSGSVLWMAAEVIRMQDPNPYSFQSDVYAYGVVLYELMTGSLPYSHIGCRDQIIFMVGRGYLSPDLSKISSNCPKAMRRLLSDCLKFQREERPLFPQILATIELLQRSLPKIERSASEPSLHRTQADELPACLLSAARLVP
UniProt O14965: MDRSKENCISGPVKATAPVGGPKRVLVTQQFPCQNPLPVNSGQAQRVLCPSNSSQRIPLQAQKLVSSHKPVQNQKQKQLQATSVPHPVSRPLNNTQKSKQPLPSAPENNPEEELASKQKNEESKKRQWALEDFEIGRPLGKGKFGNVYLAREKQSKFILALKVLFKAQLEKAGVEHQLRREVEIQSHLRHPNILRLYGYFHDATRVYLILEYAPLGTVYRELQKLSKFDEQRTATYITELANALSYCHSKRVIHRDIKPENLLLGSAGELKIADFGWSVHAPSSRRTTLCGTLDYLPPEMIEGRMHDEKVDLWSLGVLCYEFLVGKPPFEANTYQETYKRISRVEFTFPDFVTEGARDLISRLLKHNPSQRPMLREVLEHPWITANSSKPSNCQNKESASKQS
UniProt Q9UQB9: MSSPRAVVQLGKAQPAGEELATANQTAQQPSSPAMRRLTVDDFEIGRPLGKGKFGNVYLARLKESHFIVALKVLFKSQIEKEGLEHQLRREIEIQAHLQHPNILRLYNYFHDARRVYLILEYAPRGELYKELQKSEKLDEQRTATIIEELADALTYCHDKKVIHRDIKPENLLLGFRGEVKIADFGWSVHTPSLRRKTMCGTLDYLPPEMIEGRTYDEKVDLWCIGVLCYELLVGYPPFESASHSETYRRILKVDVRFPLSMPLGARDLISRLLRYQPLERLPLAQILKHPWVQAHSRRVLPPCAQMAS
UniProt P51451: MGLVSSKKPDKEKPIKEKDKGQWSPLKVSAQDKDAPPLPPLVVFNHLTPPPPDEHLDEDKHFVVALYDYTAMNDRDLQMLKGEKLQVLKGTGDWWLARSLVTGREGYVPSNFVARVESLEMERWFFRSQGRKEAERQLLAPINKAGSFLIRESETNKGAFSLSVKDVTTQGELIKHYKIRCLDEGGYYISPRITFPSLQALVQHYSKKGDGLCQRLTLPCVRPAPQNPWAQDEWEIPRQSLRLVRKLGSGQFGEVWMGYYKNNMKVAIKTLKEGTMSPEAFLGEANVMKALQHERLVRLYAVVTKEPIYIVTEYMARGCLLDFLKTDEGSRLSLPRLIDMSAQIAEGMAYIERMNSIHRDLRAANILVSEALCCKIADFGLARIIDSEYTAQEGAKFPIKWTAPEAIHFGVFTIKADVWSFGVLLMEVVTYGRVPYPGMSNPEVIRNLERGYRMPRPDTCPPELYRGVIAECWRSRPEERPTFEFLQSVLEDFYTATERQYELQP
UniProt P51813: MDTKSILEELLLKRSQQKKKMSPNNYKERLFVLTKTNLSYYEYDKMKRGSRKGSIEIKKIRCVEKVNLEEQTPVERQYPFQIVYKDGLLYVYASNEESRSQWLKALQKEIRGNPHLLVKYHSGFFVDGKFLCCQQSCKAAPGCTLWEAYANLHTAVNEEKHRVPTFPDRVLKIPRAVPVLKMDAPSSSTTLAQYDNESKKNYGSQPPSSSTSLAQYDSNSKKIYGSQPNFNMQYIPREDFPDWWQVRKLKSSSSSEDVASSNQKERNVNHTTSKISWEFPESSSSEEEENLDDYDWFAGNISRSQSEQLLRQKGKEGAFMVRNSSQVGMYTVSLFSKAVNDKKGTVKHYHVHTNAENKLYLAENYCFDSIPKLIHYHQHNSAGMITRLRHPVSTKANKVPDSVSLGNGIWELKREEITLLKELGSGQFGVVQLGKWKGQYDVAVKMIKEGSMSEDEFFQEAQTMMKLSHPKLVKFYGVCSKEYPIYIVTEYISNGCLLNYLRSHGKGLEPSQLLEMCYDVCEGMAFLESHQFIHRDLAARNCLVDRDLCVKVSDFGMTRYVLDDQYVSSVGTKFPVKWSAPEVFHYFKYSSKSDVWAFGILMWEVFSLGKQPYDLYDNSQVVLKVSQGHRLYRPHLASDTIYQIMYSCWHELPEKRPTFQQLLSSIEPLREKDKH
UniProt Q06187: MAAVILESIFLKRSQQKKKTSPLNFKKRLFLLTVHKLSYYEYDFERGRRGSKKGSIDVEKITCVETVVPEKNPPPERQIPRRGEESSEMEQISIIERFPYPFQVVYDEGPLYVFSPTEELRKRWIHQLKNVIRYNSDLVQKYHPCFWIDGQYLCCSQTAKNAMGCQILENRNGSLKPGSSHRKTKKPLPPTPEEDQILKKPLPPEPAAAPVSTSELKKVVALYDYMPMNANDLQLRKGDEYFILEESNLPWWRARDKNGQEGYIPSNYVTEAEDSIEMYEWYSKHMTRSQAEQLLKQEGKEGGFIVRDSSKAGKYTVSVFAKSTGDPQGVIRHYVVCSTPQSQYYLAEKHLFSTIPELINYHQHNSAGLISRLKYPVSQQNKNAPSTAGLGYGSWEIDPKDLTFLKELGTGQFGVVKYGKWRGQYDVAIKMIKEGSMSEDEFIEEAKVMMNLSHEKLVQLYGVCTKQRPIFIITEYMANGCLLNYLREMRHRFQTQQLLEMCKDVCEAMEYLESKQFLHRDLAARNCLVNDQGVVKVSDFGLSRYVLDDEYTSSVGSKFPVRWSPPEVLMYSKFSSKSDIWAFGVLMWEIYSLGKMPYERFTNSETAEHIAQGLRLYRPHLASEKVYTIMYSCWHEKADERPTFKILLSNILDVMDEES
UniProt Q13555: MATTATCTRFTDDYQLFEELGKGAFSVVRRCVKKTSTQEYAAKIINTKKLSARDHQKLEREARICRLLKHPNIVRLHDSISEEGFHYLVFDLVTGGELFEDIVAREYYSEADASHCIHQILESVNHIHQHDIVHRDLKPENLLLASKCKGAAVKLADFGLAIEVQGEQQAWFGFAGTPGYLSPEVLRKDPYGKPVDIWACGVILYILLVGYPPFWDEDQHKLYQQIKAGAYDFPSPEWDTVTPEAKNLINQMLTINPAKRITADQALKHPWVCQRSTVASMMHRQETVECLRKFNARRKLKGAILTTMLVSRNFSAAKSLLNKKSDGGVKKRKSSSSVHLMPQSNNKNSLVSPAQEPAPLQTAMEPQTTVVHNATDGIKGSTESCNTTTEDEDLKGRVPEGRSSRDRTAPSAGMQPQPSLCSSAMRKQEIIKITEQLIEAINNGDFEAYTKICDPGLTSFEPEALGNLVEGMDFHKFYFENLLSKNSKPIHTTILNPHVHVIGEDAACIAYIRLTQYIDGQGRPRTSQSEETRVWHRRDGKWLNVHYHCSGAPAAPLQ
UniProt Q00526: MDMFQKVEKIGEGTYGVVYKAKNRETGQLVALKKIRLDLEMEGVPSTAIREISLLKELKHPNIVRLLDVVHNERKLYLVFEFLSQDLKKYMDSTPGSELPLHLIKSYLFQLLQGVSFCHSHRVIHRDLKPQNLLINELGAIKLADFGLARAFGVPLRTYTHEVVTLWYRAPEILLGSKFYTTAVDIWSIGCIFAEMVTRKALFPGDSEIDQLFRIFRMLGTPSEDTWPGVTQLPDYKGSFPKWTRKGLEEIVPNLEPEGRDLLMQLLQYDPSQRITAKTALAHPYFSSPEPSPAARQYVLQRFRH
UniProt P11802: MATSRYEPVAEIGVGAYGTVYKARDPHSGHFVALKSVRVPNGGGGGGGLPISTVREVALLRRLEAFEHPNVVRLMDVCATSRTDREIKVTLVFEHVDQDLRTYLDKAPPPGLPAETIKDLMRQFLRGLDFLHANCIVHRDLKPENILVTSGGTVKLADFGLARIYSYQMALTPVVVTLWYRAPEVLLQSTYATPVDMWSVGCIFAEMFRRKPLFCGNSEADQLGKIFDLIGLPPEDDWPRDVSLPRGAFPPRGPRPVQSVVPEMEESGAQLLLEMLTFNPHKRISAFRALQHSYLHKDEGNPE
UniProt Q00535, whole entry, looked up: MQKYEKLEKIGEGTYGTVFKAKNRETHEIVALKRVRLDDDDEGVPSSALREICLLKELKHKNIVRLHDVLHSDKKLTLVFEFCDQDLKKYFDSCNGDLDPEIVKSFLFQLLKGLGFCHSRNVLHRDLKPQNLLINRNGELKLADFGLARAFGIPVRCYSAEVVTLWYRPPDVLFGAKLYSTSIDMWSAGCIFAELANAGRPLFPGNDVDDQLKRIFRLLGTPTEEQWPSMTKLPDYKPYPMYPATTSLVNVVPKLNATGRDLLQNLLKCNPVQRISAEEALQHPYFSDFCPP
UniProt Q00534, whole entry: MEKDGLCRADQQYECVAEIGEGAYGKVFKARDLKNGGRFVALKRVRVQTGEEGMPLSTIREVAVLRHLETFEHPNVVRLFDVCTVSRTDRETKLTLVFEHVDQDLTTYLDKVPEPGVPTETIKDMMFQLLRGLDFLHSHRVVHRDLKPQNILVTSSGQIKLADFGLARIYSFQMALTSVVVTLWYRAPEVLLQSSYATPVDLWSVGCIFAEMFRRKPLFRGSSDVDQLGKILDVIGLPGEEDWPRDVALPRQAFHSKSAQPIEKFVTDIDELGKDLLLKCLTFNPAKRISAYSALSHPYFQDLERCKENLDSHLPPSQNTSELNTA

Measured: kinase-Nluc reporter destabilization hit call

Cc1cc(C)cc(NC(N)=Nc2ccccc2C(F)(F)F)c1 (10 µM)
inactive: ABL1 = 0 | AKT1 = 0 | ALK 0 | ARAF 0 | AURKA 0 | AURKB 0 | AURKC 0 | BLK 0 | BMX 0 | BRAF 0 | BRAF_V600E 0 | BTK 0 | CAMK2A 0 | CAMK2G 0 | CDK10 = 0 | CDK2 = 0 | CDK3 = 0 | CDK4 = 0 | CDK5 = 0 | CDK6 = 0

CCc1c[nH]c2ncnc(N3CC[C@](N)(CNC(=O)c4ccc(F)cc4F)C3)c12 (10 µM)
inactive: ABL1 = 0 | AKT1 = 0 | ALK 0 | ARAF 0 | AURKA 0 | AURKB 0 | AURKC 0 | BLK 0 | BMX 0 | BRAF 0 | BRAF_V600E 0 | BTK 0 | CAMK2A 0 | CAMK2G 0 | CDK10 = 0 | CDK2 = 0 | CDK3 = 0 | CDK4 = 0 | CDK5 = 0 | CDK6 = 0

C=CC(=O)Nc1cc(Nc2nccc(-c3cn(C)c4ccccc34)n2)c(OC)cc1N(C)CCNC [AZ7550 Mesylate] (2.5 µM)
inactive: ABL1 = 0 | AKT1 = 0 | ALK 0 | ARAF 0 | AURKA 0 | AURKB 0 | AURKC 0 | BLK 0 | BMX 0 | BRAF 0 | BRAF_V600E 0 | BTK 0 | CAMK2A 0 | CAMK2G 0 | CDK10 = 0 | CDK2 = 0 | CDK3 = 0 | CDK4 = 0 | CDK5 = 0 | CDK6 = 0

O=c1cc(N2CCOCC2)oc2c(-c3ccc4c(c3)OCCO4)csc12 (2.5 µM)
inactive: ABL1 = 0 | AKT1 = 0 | ALK 0 | ARAF 0 | AURKA 0 | AURKB 0 | AURKC 0 | BLK 0 | BMX 0 | BRAF 0 | BRAF_V600E 0 | BTK 0 | CAMK2A 0 | CAMK2G 0 | CDK10 = 0 | CDK2 = 0 | CDK3 = 0 | CDK4 = 0 | CDK5 = 0 | CDK6 = 0

NCCOc1ccc(Cl)cc1C(=O)Nc1ccc([N+](=O)[O-])cc1Cl [HJC0152 hydrochloride] (2 µM)
inactive: ABL1 = 0 | AKT1 = 0 | ALK 0 | ARAF 0 | AURKA 0 | AURKB 0 | AURKC 0 | BLK 0 | BMX 0 | BRAF 0 | BRAF_V600E 0 | BTK 0 | CAMK2A 0 | CAMK2G 0 | CDK10 = 0 | CDK2 = 0 | CDK3 = 0 | CDK4 = 0 | CDK5 = 0 | CDK6 = 0

COc1ccc2c3n(c(=NC(=O)c4cccnc4)nc2c1OC)CCN3 (2 µM)
inactive: ABL1 = 0 | AKT1 = 0 | ALK 0 | ARAF 0 | AURKA 0 | AURKB 0 | AURKC 0 | BLK 0 | BMX 0 | BRAF 0 | BRAF_V600E 0 | BTK 0 | CAMK2A 0 | CAMK2G 0 | CDK10 = 0 | CDK2 = 0 | CDK3 = 0 | CDK4 = 0 | CDK5 = 0 | CDK6 = 0

Copied from the listing, two compounds:
NCCOc1ccc(Cl)cc1C(=O)Nc1ccc([N+](=O)[O-])cc1Cl [HJC0152 hydrochloride] (2 µM)
inactive: ABL1 = 0 | AKT1 = 0 | ALK 0 | ARAF 0 | AURKA 0 | AURKB 0 | AURKC 0 | BLK 0 | BMX 0 | BRAF 0 | BRAF_V600E 0 | BTK 0 | CAMK2A 0 | CAMK2G 0 | CDK10 = 0 | CDK2 = 0 | CDK3 = 0 | CDK4 = 0 | CDK5 = 0 | CDK6 = 0

COc1ccc2c3n(c(=NC(=O)c4cccnc4)nc2c1OC)CCN3 (2 µM)
inactive: ABL1 = 0 | AKT1 = 0 | ALK 0 | ARAF 0 | AURKA 0 | AURKB 0 | AURKC 0 | BLK 0 | BMX 0 | BRAF 0 | BRAF_V600E 0 | BTK 0 | CAMK2A 0 | CAMK2G 0 | CDK10 = 0 | CDK2 = 0 | CDK3 = 0 | CDK4 = 0 | CDK5 = 0 | CDK6 = 0

Later entries.

Cc1c(Cl)cccc1S(=O)(=O)Nc1nc(NCCc2ccccc2)nc2c1CN(Cc1ccccc1)CC2 (2.5 µM)
inactive: ABL1 = 0 | AKT1 = 0 | ALK 0 | ARAF 0 | AURKA 0 | AURKB 0 | AURKC 0 | BLK 0 | BMX 0 | BRAF 0 | BRAF_V600E 0 | BTK 0 | CAMK2A 0 | CAMK2G 0 | CDK10 = 0 | CDK2 = 0 | CDK3 = 0 | CDK4 = 0 | CDK5 = 0 | CDK6 = 0

N#Cc1ccc(-c2cnc3[nH]cc(NC(=O)c4cccnc4)c3c2)cc1 (10 µM)
inactive: ABL1 = 0 | AKT1 = 0 | ALK 0 | ARAF 0 | AURKA 0 | AURKB 0 | AURKC 0 | BLK 0 | BMX 0 | BRAF 0 | BRAF_V600E 0 | BTK 0 | CAMK2A 0 | CAMK2G 0 | CDK10 = 0 | CDK2 = 0 | CDK3 = 0 | CDK4 = 0 | CDK5 = 0 | CDK6 = 0

CNC(=O)c1ccc2c(c1)ncn2-c1ccc(CC(=O)OC(C)(C)C)cc1 (10 µM)
inactive: ABL1 = 0 | AKT1 = 0 | ALK 0 | ARAF 0 | AURKA 0 | AURKB 0 | AURKC 0 | BLK 0 | BMX 0 | BRAF 0 | BRAF_V600E 0 | BTK 0 | CAMK2A 0 | CAMK2G 0 | CDK10 = 0 | CDK2 = 0 | CDK3 = 0 | CDK4 = 0 | CDK5 = 0 | CDK6 = 0

CCNC(=O)C#Cc1ccc2c(C(=Nc3ccc(CN(C)C)cc3)c3ccccc3)c(O)[nH]c2c1 (2.5 µM)
inactive: ABL1 = 0 | AKT1 = 0 | ALK 0 | ARAF 0 | AURKA 0 | AURKB 0 | AURKC 0 | BLK 0 | BMX 0 | BRAF 0 | BRAF_V600E 0 | BTK 0 | CAMK2A 0 | CAMK2G 0 | CDK10 = 0 | CDK2 = 0 | CDK3 = 0 | CDK4 = 0 | CDK5 = 0 | CDK6 = 0

COc1cc(-c2cc(-c3ccc(N4CCNCC4)cc3)cnc2C)cc(OC)c1OC (10 µM)
inactive: ABL1 = 0 | AKT1 = 0 | ALK 0 | ARAF 0 | AURKA 0 | AURKB 0 | AURKC 0 | BLK 0 | BMX 0 | BRAF 0 | BRAF_V600E 0 | BTK 0 | CAMK2A 0 | CAMK2G 0 | CDK10 = 0 | CDK2 = 0 | CDK3 = 0 | CDK4 = 0 | CDK5 = 0 | CDK6 = 0

COC(=O)Nc1ccc(-c2nc(N3CCOCC3)c3cnn(C4CCN(C(=O)OC)CC4)c3n2)cc1 (10 µM)
inactive: ABL1 = 0 | AKT1 = 0 | ALK 0 | ARAF 0 | AURKA 0 | AURKB 0 | AURKC 0 | BLK 0 | BMX 0 | BRAF 0 | BRAF_V600E 0 | BTK 0 | CAMK2A 0 | CAMK2G 0 | CDK10 = 0 | CDK2 = 0 | CDK3 = 0 | CDK4 = 0 | CDK5 = 0 | CDK6 = 0

CC1CN(CC2CCN(Cc3ccccc3)CC2)C(=O)N(c2cccc(C(=N)N)c2)C1 (stereo not given) (10 µM)
inactive: ABL1 = 0 | AKT1 = 0 | ALK 0 | ARAF 0 | AURKA 0 | AURKB 0 | AURKC 0 | BLK 0 | BMX 0 | BRAF 0 | BRAF_V600E 0 | BTK 0 | CAMK2A 0 | CAMK2G 0 | CDK10 = 0 | CDK2 = 0 | CDK3 = 0 | CDK4 = 0 | CDK5 = 0 | CDK6 = 0

CCN(CC)CCOc1ccc(Nc2nc(-c3ccccc3NC(=O)CCN3CCN(C)CC3)nc3ccccc23)cc1 (2.5 µM)
inactive: ABL1 = 0 | AKT1 = 0 | ALK 0 | ARAF 0 | AURKA 0 | AURKB 0 | AURKC 0 | BLK 0 | BMX 0 | BRAF 0 | BRAF_V600E 0 | BTK 0 | CAMK2A 0 | CAMK2G 0 | CDK10 = 0 | CDK2 = 0 | CDK3 = 0 | CDK4 = 0 | CDK5 = 0 | CDK6 = 0

O=C(Nc1cccc(-c2nc(-c3ccc(NC(=O)c4cccnc4)cc3Cl)no2)c1)Nc1ccc(NC(=O)C2CC2)c(C(F)(F)F)c1 (2.5 µM)
inactive: ABL1 = 0 | AKT1 = 0 | ALK 0 | ARAF 0 | AURKA 0 | AURKB 0 | AURKC 0 | BLK 0 | BMX 0 | BRAF 0 | BRAF_V600E 0 | BTK 0 | CAMK2A 0 | CAMK2G 0 | CDK10 = 0 | CDK2 = 0 | CDK3 = 0 | CDK4 = 0 | CDK5 = 0 | CDK6 = 0

Cc1ccc(C(=O)NC2CC2)cc1-n1ncc(C(=O)c2cccc(C#N)c2)c1N [Acumapimod] (10 µM)
inactive: ABL1 = 0 | AKT1 = 0 | ALK 0 | ARAF 0 | AURKA 0 | AURKB 0 | AURKC 0 | BLK 0 | BMX 0 | BRAF 0 | BRAF_V600E 0 | BTK 0 | CAMK2A 0 | CAMK2G 0 | CDK10 = 0 | CDK2 = 0 | CDK3 = 0 | CDK4 = 0 | CDK5 = 0 | CDK6 = 0

COc1cc(N2CCOCC2)ccc1Nc1ncc(F)c(Nc2ccccc2NS(C)(=O)=O)n1 (10 µM)
inactive: ABL1 = 0 | AKT1 = 0 | ALK 0 | ARAF 0 | AURKA 0 | AURKB 0 | AURKC 0 | BLK 0 | BMX 0 | BRAF 0 | BRAF_V600E 0 | BTK 0 | CAMK2A 0 | CAMK2G 0 | CDK10 = 0 | CDK2 = 0 | CDK3 = 0 | CDK4 = 0 | CDK5 = 0 | CDK6 = 0

c1nc2c(NC3CCCCC3)nc(Nc3ccc(N4CCOCC4)cc3)nc2[nH]1 [Reversine] (10 µM)
inactive: ABL1 = 0 | AKT1 = 0 | ALK 0 | ARAF 0 | AURKA 0 | AURKB 0 | AURKC 0 | BLK 0 | BMX 0 | BRAF 0 | BRAF_V600E 0 | BTK 0 | CAMK2A 0 | CAMK2G 0 | CDK10 = 0 | CDK2 = 0 | CDK3 = 0 | CDK4 = 0 | CDK5 = 0 | CDK6 = 0

Cc1c(C)c(NCC(=O)N(C)C2CCN(Cc3ccc(C(N)=O)cc3)CC2)c(C)c(C)c1N (10 µM)
inactive: ABL1 = 0 | AKT1 = 0 | ALK 0 | ARAF 0 | AURKA 0 | AURKB 0 | AURKC 0 | BLK 0 | BMX 0 | BRAF 0 | BRAF_V600E 0 | BTK 0 | CAMK2A 0 | CAMK2G 0 | CDK10 = 0 | CDK2 = 0 | CDK3 = 0 | CDK4 = 0 | CDK5 = 0 | CDK6 = 0

— the supplement of paper PMC12823440, “Inhibitors supercharge kinase turnover through native proteolytic circuits” (Nature, 2025)
